For at least one compound, name, drawing or mass did not settle the structure.
Columns and labels:
ES-2 cells = assay: Cell growth suppression experiment; type: cell-based
Description: ES-2 cells were obtained from the American Type Culture Collection (ATCC). These cells were cultured at 37° C. in the presence of 5% CO2 in a 10% fetal bovine serum, 1% penicillin/streptomycin containing McCoy's 5a medium.
500 cells were seeded for each well in a 384-well plate, and the evaluated compound was added so that the final concentration of DMSO would be 0.1% to culture the cells for 2 days. After completion of the culture, the cell viability rate was calculated using CellTiter-Glo® 3D Reagent (Promega, G968B).
The results of cell growth suppression test on representative compounds of the present disclosure are listed in the following table based on the ranking of I, IT, III, IV, and V (1000 nM<I, 1000 nM>TI>300 nM, 300 nM>III>100 nM, 100 nMV>IV>30 nM, 30 nM>V).

Chains of the proteins cited; added tags and fusions are not shown. Lines headed by an entry give the natural chain unless they say otherwise; changes in a name come on top.
UniProt O14757: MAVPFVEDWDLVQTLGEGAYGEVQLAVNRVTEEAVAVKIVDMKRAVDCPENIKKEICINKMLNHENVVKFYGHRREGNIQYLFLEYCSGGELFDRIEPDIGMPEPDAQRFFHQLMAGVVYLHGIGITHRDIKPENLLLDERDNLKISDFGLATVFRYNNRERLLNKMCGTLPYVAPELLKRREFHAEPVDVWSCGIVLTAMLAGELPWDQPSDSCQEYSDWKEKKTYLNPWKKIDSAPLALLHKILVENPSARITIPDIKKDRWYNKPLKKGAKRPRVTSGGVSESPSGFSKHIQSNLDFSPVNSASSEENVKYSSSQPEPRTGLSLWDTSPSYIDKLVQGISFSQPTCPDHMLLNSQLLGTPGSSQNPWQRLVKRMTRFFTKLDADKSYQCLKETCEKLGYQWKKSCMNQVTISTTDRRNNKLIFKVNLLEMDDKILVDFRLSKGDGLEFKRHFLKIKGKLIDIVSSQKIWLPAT

CHK1 = CHK1 (Homo sapiens (Human), UniProt O14757); assay: CHK1 inhibitory activity test (IMAP TR-FRET)

Row | Structure (SMILES) | cell growth suppression effect compared with prexasertib (ES-2 cells) | effect of suppressing CHK1 activity compared with prexasertib (CHK1)
1 | COc1cncc(OCC2(F)CNC2)c1-c1cc(Nc2cnc(C#N)cn2)n[nH]1 [Example 5, 5-[(5-{3-[(3-fluoroazetidin-3-yl)methoxy]-5-methoxypyridin-4-yl}-1H-pyrazol-3-yl)amino]pyrazine-2-carbonitrile] | excellent cell growth suppression effect that is equivalent to that of prexasertib | more potent effect of suppressing CHK1 activity than prexasertib
2 | COc1ncnc(OCCCN)c1-c1cc(Nc2cnc(C#N)cn2)n[nH]1 [Example 17, 5-({5-[4-(3-aminopropoxy)-6-methoxypyrimidin-5-yl]-1H-pyrazol-3-yl}amino)pyrazine-2-carbonitrile] | excellent cell growth suppression effect that is equivalent to that of prexasertib | more potent effect of suppressing CHK1 activity than prexasertib

— patent US20250352541A1, “THERAPEUTIC FOR CANCER REFRACTORY TO IMMUNE CHECKPOINT INHIBITOR” (Sumitomo Pharma Co., Ltd., priority 2022, published 2025)
